Here are results for two molecules from paper PMC11094088, “Molecular mechanism of Oxr1p mediated disassembly of yeast V-ATPase” (EMBO Reports, 2024).

Test [1] addresses T1, recombinant N-terminally 7×His tagged biotinylated Oxr1p (bio-Oxr1p) (yeast) (UniProt Q08952).
T1 sequence (chain, biotin on the Avi tag (incomplete biotinylation)): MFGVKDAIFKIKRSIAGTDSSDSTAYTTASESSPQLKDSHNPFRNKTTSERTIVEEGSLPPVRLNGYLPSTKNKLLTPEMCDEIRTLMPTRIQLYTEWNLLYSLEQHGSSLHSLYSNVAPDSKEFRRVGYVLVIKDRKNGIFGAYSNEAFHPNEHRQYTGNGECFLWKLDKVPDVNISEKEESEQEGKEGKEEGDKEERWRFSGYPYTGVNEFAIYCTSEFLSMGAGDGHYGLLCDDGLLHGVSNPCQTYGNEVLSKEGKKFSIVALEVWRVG
Kind of test: pull-down; recombinant bio-Oxr1p as bait, ~10 µg purified V1 subcomplex with or without twofold molar excess of subunit C, 30 min at room temperature, streptavidin beads, SDS-PAGE (Coomassie); both purified.

Test [2] deals with wild-type yeast V-ATPase reconstituted into lipid nanodiscs (V1VoND) (yeast (endogenous) | yeast). Kind of test: cryo-EM structure; V-ATPase in lipid nanodiscs (~1-2 mg/ml) vitrified with a twofold molar excess of Oxr1p, no nucleotide; 3-D classes at ~8.2 Å; Oxr1p density in the rotary state 1 class (~31% of particles); both purified.
Test [3] deals with V1 of wild-type V-ATPase with N-terminally FLAG-tagged subunit G (FLAG-Vma10p) (yeast (endogenous) | yeast). In words: pull-down; reverse pull-down as a7, in the presence of ATP; only the binder purified.
For test [4] the target is unchanged. Kind of test: pull-down; reverse pull-down: vacuoles of the strain expressing FLAG-tagged G mixed with recombinant Oxr1p, disassembled V1 pulled down via anti-FLAG M2 affinity gel, without ATP; western blot; only the binder purified.

These are yes or no findings as the source states them, for the method shown. For some of these results: Binding can be weak; no strength is given. For some of these results: Sequences can lack the tags named with a protein. For some of these results: In cells and extracts the contact can be indirect.

In the case of “V1ΔH^(ΔOxr1) in the presence of recombinant subunit C (yeast (endogenous) | yeast) (complex)”, the binding result in test [1] was “binds”.

B1: Oxidation Resistance protein 1 (Oxr1p), recombinant (natural protein, yeast, UniProt Q08952 1-273, looked up)
chain: T1 sequence (chain, biotin on the Avi tag (incomplete biotinylation))
notes: Oxr1p, yeast TLDc domain protein; construct as described in Khan et al, 2022; also called recombinant Oxr1p; source: E. coli BL21DE3, purified (Ni-NTA, Superdex-75 SEC); not shown: 7xHis, N-terminal, kept
For B1, the binding result in test [2] is recorded as “binds”; in test [3] it was “no binding (only with ATP)”; in test [4], “binds”.
